Source: patent US20120100139A1 (APTEVO RESEARCH AND DEVELOPMENT, published 2012)
No constants are given. Whether binding was seen depends on the method and setting. Some binding calls cover weakened binding; strength is not graded here.

Amino acid sequences for entries named in this document (tags omitted). Residues count along the entry.
UniProt P42081, residues 24-247: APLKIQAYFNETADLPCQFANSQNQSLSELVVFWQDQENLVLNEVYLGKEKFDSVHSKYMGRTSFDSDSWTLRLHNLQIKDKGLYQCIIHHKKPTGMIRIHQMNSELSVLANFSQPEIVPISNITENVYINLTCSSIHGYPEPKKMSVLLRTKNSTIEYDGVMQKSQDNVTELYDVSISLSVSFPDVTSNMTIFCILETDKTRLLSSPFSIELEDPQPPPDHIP

Molecular target: CD86-mIgG (Ancell, Inc) (UniProt P42081)
Assay: SPR, CD86-mIgG immobilized

B1: FUN1 mAb (parent murine anti-CD86 monoclonal antibody) (antibody, V domains shown)
VH: EVQLQQSGPELEKPGASVKISCKASGYSFTDYNMNWVKQSNGKSLEWIGNIDPYYGGTSYNQKFKGKATLTVDKSSSTAYMQLNSLTSEDSAVYFCARWDYRYDDGRAYYVMDFWGQGTSVTVSS
VL: ELQMTQSPSSLAASAGEKVTMSCKSSQSVLYSSNQKNYLAWYQQKPGQSPKLLIYWASTRESGVPDRFTGSGSGTHFTLTVSSVQAEDLAVYYCHQYLYSWTFGGGTNLEIKR
notes: Murine monoclonal antibody; also called FUN1 antibody
Q: B1 was tested. Which binding did it give?
A: Its binding is “binds”.
